# Source: article doi:10.1101/2022.06.26.497680
# Protein sequences, listed by entry. Tags and fused reporters are not part of them.
# UniProt Q8WWY3: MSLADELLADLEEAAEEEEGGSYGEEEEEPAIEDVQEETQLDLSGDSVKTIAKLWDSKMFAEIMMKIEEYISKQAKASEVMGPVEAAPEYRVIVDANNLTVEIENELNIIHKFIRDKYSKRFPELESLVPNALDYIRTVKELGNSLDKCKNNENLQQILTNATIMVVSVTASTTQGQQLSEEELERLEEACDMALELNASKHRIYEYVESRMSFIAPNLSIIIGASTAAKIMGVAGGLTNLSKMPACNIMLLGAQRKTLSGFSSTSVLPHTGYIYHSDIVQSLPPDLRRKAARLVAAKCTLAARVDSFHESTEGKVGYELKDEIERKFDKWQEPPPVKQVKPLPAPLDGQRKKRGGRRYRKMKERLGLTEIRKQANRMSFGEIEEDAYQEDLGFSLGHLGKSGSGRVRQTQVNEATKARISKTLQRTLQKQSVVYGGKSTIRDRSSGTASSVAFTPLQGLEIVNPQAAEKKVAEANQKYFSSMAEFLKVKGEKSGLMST
# Results are given in words; binding and its absence hold for the method and conditions named. Binding seen in cells or lysates may run through a third protein. Some results given as binding are weak or reduced against the parent protein; the word gives no strength.
# B1: PRPH2-mCherry (protein, UniProt P23942 1-346)
# chain: MALLKVKFDQKKRVKLAQGLWLMNWFSVLAGIIIFSLGLFLKIELRKRSDVMNNSESHFVPNSLIGMGVLSCVFNSLAGKICYDALDPAKYARWKPWLKPYLAICVLFNIILFLVALCCFLLRGSLENTLGQGLKNGMKYYRDTDTPGRCFMKKTIDMLQIEFKCCGNNGFRDWFEIQWISNRYLDFSSKEVKDRIKSNVDGRYLVDGVPFSCCNPSSPRPCIQYQITNNSAHYSYDHQTEELNLWVRGCRAALLSYYSSLMNSMGVVTLLIWLFEVTITIGLRYLQTSLDGVSNPEESESESQGWLLERSVPETWKAFLESVKKLGKGNQVEAEGADAGQAPEAG
# Biological target: PRPF31-3Flag (UniProt Q8WWY3)
# Assay: co-IP
binder,measurement,value
B1,binding,binds
